Experimental data taken from PMC6735362.
No constants are given. Whether binding was seen depends on the method and setting. In cells and extracts the contact can be indirect. Binding can be weak; no strength is given.

Protein sequences, listed by entry. Tags and fused reporters are not part of them. Lines headed by an entry give the natural chain unless they say otherwise; changes in a name come on top.
UniProt P18206: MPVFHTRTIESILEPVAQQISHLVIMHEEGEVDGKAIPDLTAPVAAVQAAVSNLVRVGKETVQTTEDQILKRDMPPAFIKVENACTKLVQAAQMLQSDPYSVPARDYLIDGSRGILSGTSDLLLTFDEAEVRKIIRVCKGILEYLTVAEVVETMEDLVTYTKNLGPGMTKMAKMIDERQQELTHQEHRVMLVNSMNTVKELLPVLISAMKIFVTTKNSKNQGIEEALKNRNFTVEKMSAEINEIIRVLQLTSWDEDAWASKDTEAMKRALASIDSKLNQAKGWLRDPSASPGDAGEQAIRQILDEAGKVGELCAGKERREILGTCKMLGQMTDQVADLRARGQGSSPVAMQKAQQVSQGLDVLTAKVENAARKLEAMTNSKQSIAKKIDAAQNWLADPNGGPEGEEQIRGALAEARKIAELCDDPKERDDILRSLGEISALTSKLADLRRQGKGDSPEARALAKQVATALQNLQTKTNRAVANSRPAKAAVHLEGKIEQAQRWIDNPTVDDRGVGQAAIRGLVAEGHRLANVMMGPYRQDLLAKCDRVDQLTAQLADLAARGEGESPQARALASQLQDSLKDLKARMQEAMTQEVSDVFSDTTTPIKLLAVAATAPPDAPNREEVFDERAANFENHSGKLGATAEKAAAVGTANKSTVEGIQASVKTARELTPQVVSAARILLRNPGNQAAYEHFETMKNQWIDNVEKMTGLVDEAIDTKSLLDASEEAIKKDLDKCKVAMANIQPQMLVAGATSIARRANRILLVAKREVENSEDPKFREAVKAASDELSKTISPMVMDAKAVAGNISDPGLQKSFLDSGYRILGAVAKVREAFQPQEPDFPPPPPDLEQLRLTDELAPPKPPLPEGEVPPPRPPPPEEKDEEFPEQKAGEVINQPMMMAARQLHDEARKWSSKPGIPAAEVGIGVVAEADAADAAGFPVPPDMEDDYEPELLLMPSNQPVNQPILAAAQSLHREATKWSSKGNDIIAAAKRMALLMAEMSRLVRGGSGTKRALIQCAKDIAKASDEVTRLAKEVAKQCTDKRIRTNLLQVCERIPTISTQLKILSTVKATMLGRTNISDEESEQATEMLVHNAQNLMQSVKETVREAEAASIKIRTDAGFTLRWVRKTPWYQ

Target: Vinculin, endogenous in human brain vascular pericytes (human (endogenous in HBVPs)) (UniProt P18206)
Experiment: co-IP; endogenous proteins; whole cell extracts of HBVPs incubated with or without SIN-1 (0.5 mM, 12 h); anti-Vinculin antibody 1 h at 4 °C, Capturem IP & Co-IP Kit spin column; immunoblot for GPR124 and Vinculin

B1: G protein-coupled receptor 124 (GPR124), endogenous in human brain vascular pericytes (receptor, UniProt Q96PE1 34-1338)
chain: APGCPLSIRSCKCSGERPKGLSGGVPGPARRRVVCSGGDLPEPPEPGLLPNGTVTLLLSNNKITGLRNGSFLGLSLLEKLDLRNNIISTVQPGAFLGLGELKRLDLSNNRIGCLTSETFQGLPRLLRLNISGNIFSSLQPGVFDELPALKVVDLGTEFLTCDCHLRWLLPWAQNRSLQLSEHTLCAYPSALHAQALGSLQEAQLCCEGALELHTHHLIPSLRQVVFQGDRLPFQCSASYLGNDTRIRWYHNRAPVEGDEQAGILLAESLIHDCTFITSELTLSHIGVWASGEWECTVSMAQGNASKKVEIVVLETSASYCPAERVANNRGDFRWPRTLAGITAYQSCLQYPFTSVPLGGGAPGTRASRRCDRAGRWEPGDYSHCLYTNDITRVLYTFVLMPINASNALTLAHQLRVYTAEAASFSDMMDVVYVAQMIQKFLGYVDQIKELVEVMVDMASNLMLVDEHLLWLAQREDKACSRIVGALERIGGAALSPHAQHISVNARNVALEAYLIKPHSYVGLTCTAFQRREGGVPGTRPGSPGQNPPPEPEPPADQQLRFRCTTGRPNVSLSSFHIKNSVALASIQLPPSLFSSLPAALAPPVPPDCTLQLLVFRNGRLFHSHSNTSRPGAAGPGKRRGVATPVIFAGTSGCGVGNLTEPVAVSLRHWAEGAEPVAAWWSQEGPGEAGGWTSEGCQLRSSQPNVSALHCQHLGNVAVLMELSAFPREVGGAGAGLHPVVYPCTALLLLCLFATIITYILNHSSIRVSRKGWHMLLNLCFHIAMTSAVFAGGITLTNYQMVCQAVGITLHYSSLSTLLWMGVKARVLHKELTWRAPPPQEGDPALPTPSPMLRFYLIAGGIPLIICGITAAVNIHNYRDHSPYCWLVWRPSLGAFYIPVALILLITWIYFLCAGLRLRGPLAQNPKAGNSRASLEAGEELRGSTRLRGSGPLLSDSGSLLATGSARVGTPGPPEDGDSLYSPGVQLGALVTTHFLYLAMWACGALAVSQRWLPRVVCSCLYGVAASALGLFVFTHHCARRRDVRASWRACCPPASPAAPHAPPRALPAAAEDGSPVFGEGPPSLKSSPSGSSGHPLALGPCKLTNLQLAQSQVCEAGAAAGGEGEPEPAGTRGNLAHRHPNNVHHGRRAHKSRAKGHRAGEACGKNRLKALRGGAAGALELLSSESGSLHNSPTDSYLGSSRNSPGAGLQLEGEPMLTPSEGSDTSAAPLSEAGRAGQRRSASRDSLKGGGALEKESHRRSYPLNAASLNGAPKGGKYDDVTLMGAEVASGGCMKTGLWKSETTV
  binding: binds
